# This is one part of the list.
# Amino acid sequences for entries named in this document (tags omitted). A change or cut given only in a name is not applied to a line headed by its entry.
# UniProt Q9BUZ4: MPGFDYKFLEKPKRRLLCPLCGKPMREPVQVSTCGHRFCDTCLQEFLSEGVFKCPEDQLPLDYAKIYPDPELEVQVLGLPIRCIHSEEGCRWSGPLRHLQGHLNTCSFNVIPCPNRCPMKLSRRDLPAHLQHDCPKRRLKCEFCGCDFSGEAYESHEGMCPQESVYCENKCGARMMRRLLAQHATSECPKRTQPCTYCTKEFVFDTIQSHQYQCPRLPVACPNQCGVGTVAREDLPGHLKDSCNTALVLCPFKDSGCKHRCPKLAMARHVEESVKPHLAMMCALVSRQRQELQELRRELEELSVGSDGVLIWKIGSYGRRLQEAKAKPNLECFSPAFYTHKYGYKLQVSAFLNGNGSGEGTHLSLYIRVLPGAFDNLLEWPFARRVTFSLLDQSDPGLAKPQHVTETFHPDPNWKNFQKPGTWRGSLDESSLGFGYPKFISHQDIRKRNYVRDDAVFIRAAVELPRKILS
# UniProt P36406: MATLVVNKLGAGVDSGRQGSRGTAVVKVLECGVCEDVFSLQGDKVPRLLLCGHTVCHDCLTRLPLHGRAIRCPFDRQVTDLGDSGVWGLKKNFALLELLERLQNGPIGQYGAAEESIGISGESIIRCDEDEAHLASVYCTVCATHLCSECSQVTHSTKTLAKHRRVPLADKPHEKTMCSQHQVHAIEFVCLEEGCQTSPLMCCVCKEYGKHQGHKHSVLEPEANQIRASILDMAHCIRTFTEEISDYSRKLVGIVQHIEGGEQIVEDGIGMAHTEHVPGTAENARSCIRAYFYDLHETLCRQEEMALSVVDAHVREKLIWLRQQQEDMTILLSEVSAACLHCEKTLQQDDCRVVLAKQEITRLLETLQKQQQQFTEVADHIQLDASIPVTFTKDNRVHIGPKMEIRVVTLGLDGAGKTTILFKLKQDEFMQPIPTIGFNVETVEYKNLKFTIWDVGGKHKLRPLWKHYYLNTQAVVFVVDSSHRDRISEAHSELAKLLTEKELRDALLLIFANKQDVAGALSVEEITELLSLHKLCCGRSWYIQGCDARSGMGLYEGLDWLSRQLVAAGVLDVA
# UniProt Q96Q05, whole entry, looked up: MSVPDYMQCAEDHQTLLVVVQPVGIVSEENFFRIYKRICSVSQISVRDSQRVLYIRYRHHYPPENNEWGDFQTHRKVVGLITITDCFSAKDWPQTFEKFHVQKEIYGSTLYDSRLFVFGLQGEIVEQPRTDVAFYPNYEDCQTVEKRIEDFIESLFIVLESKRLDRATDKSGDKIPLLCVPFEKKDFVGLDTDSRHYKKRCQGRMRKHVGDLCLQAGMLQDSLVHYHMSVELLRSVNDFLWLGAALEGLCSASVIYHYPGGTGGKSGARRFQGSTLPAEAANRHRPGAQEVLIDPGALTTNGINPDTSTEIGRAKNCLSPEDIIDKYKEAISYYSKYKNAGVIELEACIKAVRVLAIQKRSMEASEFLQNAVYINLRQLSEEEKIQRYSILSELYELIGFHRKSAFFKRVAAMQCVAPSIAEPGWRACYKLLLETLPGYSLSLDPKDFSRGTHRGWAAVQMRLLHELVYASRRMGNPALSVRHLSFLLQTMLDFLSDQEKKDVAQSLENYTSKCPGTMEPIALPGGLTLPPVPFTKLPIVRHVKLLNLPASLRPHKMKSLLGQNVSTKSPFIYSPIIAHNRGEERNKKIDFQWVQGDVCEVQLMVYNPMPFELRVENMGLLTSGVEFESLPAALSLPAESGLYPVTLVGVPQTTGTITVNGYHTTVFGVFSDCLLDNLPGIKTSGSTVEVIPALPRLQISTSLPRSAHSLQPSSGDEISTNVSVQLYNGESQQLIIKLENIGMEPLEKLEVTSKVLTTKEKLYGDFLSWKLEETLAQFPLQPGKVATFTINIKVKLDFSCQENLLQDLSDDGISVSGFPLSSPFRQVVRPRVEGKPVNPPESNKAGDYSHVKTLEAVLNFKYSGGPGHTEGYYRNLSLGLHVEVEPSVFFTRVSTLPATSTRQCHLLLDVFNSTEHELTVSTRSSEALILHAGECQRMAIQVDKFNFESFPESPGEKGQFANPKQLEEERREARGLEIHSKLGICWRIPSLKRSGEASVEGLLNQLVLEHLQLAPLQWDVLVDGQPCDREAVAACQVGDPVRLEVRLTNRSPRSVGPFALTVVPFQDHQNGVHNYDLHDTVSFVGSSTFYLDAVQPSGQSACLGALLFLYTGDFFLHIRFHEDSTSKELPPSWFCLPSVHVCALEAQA
# UniProt O14545: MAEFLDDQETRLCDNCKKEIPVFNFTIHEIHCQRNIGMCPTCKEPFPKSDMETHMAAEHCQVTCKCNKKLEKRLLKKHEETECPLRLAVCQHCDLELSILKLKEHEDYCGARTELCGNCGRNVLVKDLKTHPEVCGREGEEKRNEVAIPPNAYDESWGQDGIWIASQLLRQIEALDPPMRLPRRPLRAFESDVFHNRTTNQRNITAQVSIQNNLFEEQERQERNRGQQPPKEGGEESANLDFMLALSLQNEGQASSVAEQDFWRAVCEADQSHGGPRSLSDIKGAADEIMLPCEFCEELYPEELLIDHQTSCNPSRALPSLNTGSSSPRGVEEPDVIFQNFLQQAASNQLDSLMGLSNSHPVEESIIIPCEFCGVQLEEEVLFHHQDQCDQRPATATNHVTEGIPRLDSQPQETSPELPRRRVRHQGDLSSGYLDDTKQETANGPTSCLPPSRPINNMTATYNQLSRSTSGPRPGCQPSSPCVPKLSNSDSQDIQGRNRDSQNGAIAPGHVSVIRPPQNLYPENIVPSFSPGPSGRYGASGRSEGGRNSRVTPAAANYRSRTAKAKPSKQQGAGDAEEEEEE
# UniProt Q86SZ2: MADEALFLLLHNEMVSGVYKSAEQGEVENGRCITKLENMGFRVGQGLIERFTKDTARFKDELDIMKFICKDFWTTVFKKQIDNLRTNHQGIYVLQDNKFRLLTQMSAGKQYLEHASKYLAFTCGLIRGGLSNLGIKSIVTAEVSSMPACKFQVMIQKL
# UniProt Q7Z6J9: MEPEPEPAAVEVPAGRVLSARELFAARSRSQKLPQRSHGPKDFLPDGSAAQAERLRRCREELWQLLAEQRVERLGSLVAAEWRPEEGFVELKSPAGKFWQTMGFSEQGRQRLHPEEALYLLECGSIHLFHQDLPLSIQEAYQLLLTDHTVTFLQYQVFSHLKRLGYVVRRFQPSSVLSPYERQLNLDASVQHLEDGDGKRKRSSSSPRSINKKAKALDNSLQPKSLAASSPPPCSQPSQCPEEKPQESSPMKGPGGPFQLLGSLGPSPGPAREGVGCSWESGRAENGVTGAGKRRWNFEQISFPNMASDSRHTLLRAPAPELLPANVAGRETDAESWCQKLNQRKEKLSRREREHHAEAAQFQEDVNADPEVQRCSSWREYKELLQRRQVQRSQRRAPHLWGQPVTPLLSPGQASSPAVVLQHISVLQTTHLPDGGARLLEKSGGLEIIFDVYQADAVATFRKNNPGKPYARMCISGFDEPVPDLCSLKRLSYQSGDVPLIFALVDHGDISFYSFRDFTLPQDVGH
# UniProt Q8IZ69: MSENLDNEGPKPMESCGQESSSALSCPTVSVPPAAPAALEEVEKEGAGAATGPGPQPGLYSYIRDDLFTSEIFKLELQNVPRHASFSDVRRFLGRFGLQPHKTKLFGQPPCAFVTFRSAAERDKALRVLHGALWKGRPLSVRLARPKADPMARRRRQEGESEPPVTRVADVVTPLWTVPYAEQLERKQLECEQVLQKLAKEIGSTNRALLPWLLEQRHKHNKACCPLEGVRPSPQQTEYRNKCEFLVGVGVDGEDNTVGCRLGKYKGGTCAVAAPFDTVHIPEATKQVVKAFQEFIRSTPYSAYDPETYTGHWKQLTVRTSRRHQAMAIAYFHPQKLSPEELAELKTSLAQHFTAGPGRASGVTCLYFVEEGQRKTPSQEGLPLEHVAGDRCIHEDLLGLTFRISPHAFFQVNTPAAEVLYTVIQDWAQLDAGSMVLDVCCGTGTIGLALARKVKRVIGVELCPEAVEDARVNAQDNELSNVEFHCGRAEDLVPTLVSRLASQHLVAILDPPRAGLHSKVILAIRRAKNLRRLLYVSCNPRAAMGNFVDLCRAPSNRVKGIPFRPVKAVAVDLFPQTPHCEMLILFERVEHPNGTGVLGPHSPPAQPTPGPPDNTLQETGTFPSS
# UniProt Q6PID6, whole entry, looked up: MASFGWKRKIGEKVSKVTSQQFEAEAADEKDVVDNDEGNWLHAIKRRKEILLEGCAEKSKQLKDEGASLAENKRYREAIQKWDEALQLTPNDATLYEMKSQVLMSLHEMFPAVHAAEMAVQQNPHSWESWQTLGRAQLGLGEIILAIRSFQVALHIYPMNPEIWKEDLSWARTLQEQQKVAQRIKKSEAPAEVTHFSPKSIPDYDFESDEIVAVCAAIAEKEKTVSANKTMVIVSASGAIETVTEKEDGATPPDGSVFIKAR
# UniProt Q15714: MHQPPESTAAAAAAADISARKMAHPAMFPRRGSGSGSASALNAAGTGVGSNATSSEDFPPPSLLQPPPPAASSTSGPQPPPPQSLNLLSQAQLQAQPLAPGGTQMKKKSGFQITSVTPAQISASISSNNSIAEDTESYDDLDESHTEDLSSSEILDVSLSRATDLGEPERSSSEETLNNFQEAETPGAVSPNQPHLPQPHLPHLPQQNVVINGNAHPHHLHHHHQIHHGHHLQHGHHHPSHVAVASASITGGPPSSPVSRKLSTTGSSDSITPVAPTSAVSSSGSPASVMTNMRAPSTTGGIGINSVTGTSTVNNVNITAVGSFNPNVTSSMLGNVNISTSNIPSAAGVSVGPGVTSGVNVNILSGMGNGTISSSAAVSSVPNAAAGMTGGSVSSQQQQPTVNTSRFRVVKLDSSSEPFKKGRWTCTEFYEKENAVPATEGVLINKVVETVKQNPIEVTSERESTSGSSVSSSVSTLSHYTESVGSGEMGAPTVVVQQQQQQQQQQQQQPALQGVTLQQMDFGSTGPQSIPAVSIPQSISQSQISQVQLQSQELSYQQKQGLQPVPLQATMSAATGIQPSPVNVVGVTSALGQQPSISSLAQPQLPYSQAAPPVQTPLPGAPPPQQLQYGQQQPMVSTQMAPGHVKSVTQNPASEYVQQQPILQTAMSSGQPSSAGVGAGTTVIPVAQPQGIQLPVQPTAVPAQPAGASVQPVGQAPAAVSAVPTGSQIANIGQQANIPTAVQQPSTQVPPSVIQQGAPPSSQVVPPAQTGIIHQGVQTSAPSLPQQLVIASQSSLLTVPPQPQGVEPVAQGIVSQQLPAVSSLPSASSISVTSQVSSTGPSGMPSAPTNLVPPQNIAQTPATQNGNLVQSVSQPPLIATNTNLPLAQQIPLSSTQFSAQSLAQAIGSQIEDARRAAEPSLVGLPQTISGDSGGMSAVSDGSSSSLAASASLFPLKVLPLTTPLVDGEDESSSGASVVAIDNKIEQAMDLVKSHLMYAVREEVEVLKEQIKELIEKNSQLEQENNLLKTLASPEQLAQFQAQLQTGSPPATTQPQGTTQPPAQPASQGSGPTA
# UniProt O15164: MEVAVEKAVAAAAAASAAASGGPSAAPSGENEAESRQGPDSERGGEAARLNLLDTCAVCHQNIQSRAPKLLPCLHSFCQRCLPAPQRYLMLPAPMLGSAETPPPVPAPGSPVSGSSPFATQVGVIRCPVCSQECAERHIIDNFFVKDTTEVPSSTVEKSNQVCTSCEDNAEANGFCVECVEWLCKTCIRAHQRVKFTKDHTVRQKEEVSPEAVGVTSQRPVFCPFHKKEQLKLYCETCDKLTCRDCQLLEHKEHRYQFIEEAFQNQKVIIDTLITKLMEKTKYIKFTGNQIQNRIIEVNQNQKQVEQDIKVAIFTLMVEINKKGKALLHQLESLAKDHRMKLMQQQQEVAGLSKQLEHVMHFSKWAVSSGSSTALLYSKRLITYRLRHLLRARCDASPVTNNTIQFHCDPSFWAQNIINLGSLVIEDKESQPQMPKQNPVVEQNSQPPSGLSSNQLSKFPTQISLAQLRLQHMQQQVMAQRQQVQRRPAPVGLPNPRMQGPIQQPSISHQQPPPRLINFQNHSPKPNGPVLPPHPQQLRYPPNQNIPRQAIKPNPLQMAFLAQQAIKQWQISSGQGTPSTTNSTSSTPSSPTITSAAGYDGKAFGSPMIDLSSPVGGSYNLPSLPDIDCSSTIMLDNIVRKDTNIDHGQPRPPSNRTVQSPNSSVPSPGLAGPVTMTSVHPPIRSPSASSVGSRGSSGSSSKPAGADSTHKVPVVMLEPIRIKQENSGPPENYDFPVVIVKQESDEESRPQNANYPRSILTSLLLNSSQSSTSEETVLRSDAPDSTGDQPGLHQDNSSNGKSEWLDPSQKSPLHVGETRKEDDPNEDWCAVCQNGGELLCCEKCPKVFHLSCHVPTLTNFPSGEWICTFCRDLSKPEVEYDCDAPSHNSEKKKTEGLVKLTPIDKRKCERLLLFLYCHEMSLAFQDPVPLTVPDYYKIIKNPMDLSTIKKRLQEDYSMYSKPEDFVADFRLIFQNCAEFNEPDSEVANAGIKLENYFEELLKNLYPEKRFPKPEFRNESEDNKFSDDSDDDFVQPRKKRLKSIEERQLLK
# Compound: CC1=C(C=C(C=C1)NC(=O)C2=CC(=CC=C2)C(C)(C)C#N)NC3=CC4=C(C=C3)N=CN(C4=O)C
# Experiment: log2 fold change, soluble protein after heating vs DMSO (PISA); higher = thermal stabilisation; K562 lysate, 10 uM; active = over 0.2 and 3.5 SD of the protein, either way, in both replicates (recomputed)
# How it was run: (§1)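 Values give the log-two fold change in thermal stability against solvent controls, from duplicates. Crude K562 extract at 1 mg/mL protein, made by dounce homogenisation in PBS pH 7.4 with 1 mM MgCl2, was treated with 10 μM compound for 30 min. After 3 min heating across 48°C-58°C, aliquots were pooled, adjusted to 0.5% NP-40 at 4°C and centrifuged at 21,000xg for 90 min. The supernatant was measured by TMTpro 16plex LC-MS/MS with channel sums equalised.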
row,Target,log2 fold change
1,TRAPPC8 (UniProt Q9Y2L5),inactive: 0.014
2,TRAF4 (UniProt Q9BUZ4),inactive: 0.035
3,TSEN34 (UniProt Q9BSV6),inactive: 0.017
4,TRAPPC3 (UniProt O43617),inactive: -0.006
5,TRIM23 (UniProt P36406),inactive: 0.099
6,TRAPPC9 isoform 2 (UniProt Q96Q05),inactive: 0.02
7,TRUB1 (UniProt Q8WWH5),inactive: 0.055
8,TRIP4 (UniProt Q15650),inactive: 0.008
9,TRAFD1 (UniProt O14545),inactive: 0.053
10,TRAPPC6B (UniProt Q86SZ2),inactive: -0.011

# Compound: CC1=C(C=C(C=C1)NC(=O)C2=CC(=CC=C2)N(C)C)NC(=O)C3=CC=C(C=C3)O
# Experiment: as above
# How it was run: as §1
row,Target,log2 fold change
1,TRAP1 (UniProt Q12931),inactive: 0.003
2,TTI1 (UniProt O43156),inactive: -0.009
3,TRNT1 (UniProt Q96Q11),inactive: 0.051
4,TSEN54 (UniProt Q7Z6J9),inactive: 0.003
5,TSN (UniProt Q15631),inactive: -0.004
6,TRMT2A (UniProt Q8IZ69),inactive: 0.035
7,TTC33 (UniProt Q6PID6),inactive: -0.043
8,TRMU (UniProt O75648),inactive: 0.006
9,TSC22D1 (UniProt Q15714),inactive: -0.024
10,TTC19 (UniProt Q6DKK2),inactive: 0.016
11,TRIM11 (UniProt Q96F44),inactive: -0.014
12,TRIP10 (UniProt Q15642),inactive: 0.011
13,TRIM24 (UniProt O15164),inactive: 0.076

# A second format for part of the listing above:
row | Target | log2 fold change
8 | TRMU (UniProt O75648) | inactive: 0.006
9 | TSC22D1 (UniProt Q15714) | inactive: -0.024
10 | TTC19 (UniProt Q6DKK2) | inactive: 0.016
11 | TRIM11 (UniProt Q96F44) | inactive: -0.014
12 | TRIP10 (UniProt Q15642) | inactive: 0.011
13 | TRIM24 (UniProt O15164) | inactive: 0.076

# From the supplement of paper PMC10849652
